Measurements from patent US5721213A (Nippon Steel Corporation, priority 1993, dated 1998).
Some peptides are written in HELM: one residue between dots, names in brackets for other building blocks, links after the first $.

Assay: general procedure: Fmoc solid-phase peptide synthesis; p-Alkoxybenzyl alcohol-type resin
Details: whole synthesis, scale 0.25 mmol, acetate

PEPTIDE1{P.S.A.[Sar].D.W}$$$$V2.0 showed an isolated mass of 34 mg.
